Data taken from paper PMC5261017.
Results are given in words; binding and its absence hold for the method and conditions named. In cells and extracts the contact can be indirect. A yes stands for co-enrichment or nearness to the bait. Other partners may have been found. Tags and fused reporters may be left off the sequences shown.

T1: Heme oxygenase 1 (recombinant FLAGHO-1) (human) (UniProt P09601)
T1 sequence: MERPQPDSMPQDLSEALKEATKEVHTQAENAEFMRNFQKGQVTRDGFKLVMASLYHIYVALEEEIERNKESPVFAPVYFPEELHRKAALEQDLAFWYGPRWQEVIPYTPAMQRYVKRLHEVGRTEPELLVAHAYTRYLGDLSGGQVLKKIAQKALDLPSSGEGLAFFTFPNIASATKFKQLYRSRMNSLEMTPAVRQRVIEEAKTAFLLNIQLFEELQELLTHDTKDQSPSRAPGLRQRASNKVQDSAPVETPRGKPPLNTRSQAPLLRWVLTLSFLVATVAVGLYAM

B1: Interferon-induced Mx protein (protein, UniProt P20591-1 1-662)
chain: MVVSEVDIAKADPAAASHPLLLNGDATVAQKNPGSVAENNLCSQYEEKVRPCIDLIDSLRALGVEQDLALPAIAVIGDQSSGKSSVLEALSGVALPRGSGIVTRCPLVLKLKKLVNEDKWRGKVSYQDYEIEISDASEVEKEINKAQNAIAGEGMGISHELITLEISSRDVPDLTLIDLPGITRVAVGNQPADIGYKIKTLIKKYIQRQETISLVVVPSNVDIATTEALSMAQEVDPEGDRTIGILTKPDLVDKGTEDKVVDVVRNLVFHLKKGYMIVKCRGQQEIQDQLSLSEALQREKIFFENHPYFRDLLEEGKATVPCLAEKLTSELITHICKSLPLLENQIKETHQRITEELQKYGVDIPEDENEKMFFLIDKVNAFNQDITALMQGEETVGEEDIRLFTRLRHEFHKWSTIIENNFQEGHKILSRKIQKFENQYRGRELPGFVNYRTFETIVKQQIKALEEPAVDMLHTVTDMVRLAFTDVSIKNFEEFFNLHRTAKSKIEDIRAEQEREGEKLIRLHFQMEQIVYCQDQVYRGALQKVREKELEEEKKKKSWDFGAFQSSSATDSSMEEIFQHLMAYHQEASKRISSHIPLIIQFFMLQTYGQQLQKAMLQLLQDKDTYSWLLKERSDTSDKRKFLKERLARLTQARRRLAQFPG
B2: Nitric oxide-associated protein (protein, UniProt Q8NC60 1-698)
chain: MLPARLPFRLLSLFLRGSAPTAARHGLREPLLERRCAAASSFQHSSSLGRELPYDPVDTEGFGEGGDMQERFLFPEYILDPEPQPTREKQLQELQQQQEEEERQRQQRREERRQQNLRARSREHPVVGHPDPALPPSGVNCSGCGAELHCQDAGVPGYLPREKFLRTAEADGGLARTVCQRCWLLSHHRRALRLQVSREQYLELVSAALRRPGPSLVLYMVDLLDLPDALLPDLPALVGPKQLIVLGNKVDLLPQDAPGYRQRLRERLWEDCARAGLLLAPGHQGPQRPVKDEPQDGENPNPPNWSRTVVRDVRLISAKTGYGVEELISALQRSWRYRGDVYLVGATNAGKSTLFNTLLESDYCTAKGSEAIDRATISPWPGTTLNLLKFPICNPTPYRMFKRHQRLKKDSTQAEEDLSEQEQNQLNVLKKHGYVVGRVGRTFLYSEEQKDNIPFEFDADSLAFDMENDPVMGTHKSTKQVELTAQDVKDAHWFYDTPGITKENCILNLLTEKEVNIVLPTQSIVPRTFVLKPGMVLFLGAIGRIDFLQGNQSAWFTVVASNILPVHITSLDRADALYQKHAGHTLLQIPMGGKERMAGFPPLVAEDIMLKEGLGASEAVADIKFSSAGWVSVTPNFKDRLHLRGYTPEGTVLTVRPPLLPYIVNIKGQRIKKSVAYKTKKPPSLMYNVRKKKGKINV
B3: Peroxiredoxin 2 (protein, UniProt P32119 1-198)
chain: MASGNARIGKPAPDFKATAVVDGAFKEVKLSDYKGKYVVLFFYPLDFTFVCPTEIIAFSNRAEDFRKLGCEVLGVSVDSQFTHLAWINTPRKEGGLGPLNIPLLADVTRRLSEDYGVLKTDEGIAYRGLFIIDGKGVLRQITVNDLPVGRSVDEALRLVQAFQYTDEHGEVCPAGWKPGSDTIKPNVDDSKEYFSKHN
B4: Purine-rich element binding protein A (protein, UniProt Q00577 1-322)
chain: MADRDSGSEQGGAALGSGGSLGHPGSGSGSGGGGGGGGGGGGSGGGGGGAPGGLQHETQELASKRVDIQNKRFYLDVKQNAKGRFLKIAEVGAGGNKSRLTLSMSVAVEFRDYLGDFIEHYAQLGPSQPPDLAQAQDEPRRALKSEFLVRENRKYYMDLKENQRGRFLRIRQTVNRGPGLGSTQGQTIALPAQGLIEFRDALAKLIDDYGVEEEPAELPEGTSLTVDNKRFFFDVGSNKYGVFMRVSEVKPTYRNSITVPYKVWAKFGHTFCKYSEEMKKIQEKQREKRAACEQLHQQQQQQQEETAAATLLLQGEEEGEED
B5: Retinoic acid-induced 14 (protein, UniProt Q9P0K7-1 1-980)
chain: MKSLKAKFRKSDTNEWNKNDDRLLQAVENGDAEKVASLLGKKGASATKHDSEGKTAFHLAAAKGHVECLRVMITHGVDVTAQDTTGHSALHLAAKNSHHECIRKLLQSKCPAESVDSSGKTALHYAAAQGCLQAVQILCEHKSPINLKDLDGNIPLLLAVQNGHSEICHFLLDHGADVNSRNKSGRTALMLACEIGSSNAVEALIKKGADLNLVDSLGYNALHYSKLSENAGIQSLLLSKISQDADLKTPTKPKQHDQVSKISSERSGTPKKRKAPPPPISPTQLSDVSSPRSITSTPLSGKESVFFAEPPFKAEISSIRENKDRLSDSTTGADSLLDISSEADQQDLLSLLQAKVASLTLHNKELQDKLQAKSPKEAEADLSFDSYHSTQTDLGPSLGKPGETSPPDSKSSPSVLIHSLGKSTTDNDVRIQQLQEILQDLQKRLESSEAERKQLQVELQSRRAELVCLNNTEISENSSDLSQKLKETQSKYEEAMKEVLSVQKQMKLGLVSPESMDNYSHFHELRVTEEEINVLKQDLQNALEESERNKEKVRELEEKLVEREKGTVIKPPVEEYEEMKSSYCSVIENMNKEKAFLFEKYQEAQEEIMKLKDTLKSQMTQEASDEAEDMKEAMNRMIDELNKQVSELSQLYKEAQAELEDYRKRKSLEDVTAEYIHKAEHEKLMQLTNVSRAKAEDALSEMKSQYSKVLNELTQLKQLVDAQKENSVSITEHLQVITTLRTAAKEMEEKISNLKEHLASKEVEVAKLEKQLLEEKAAMTDAMVPRSSYEKLQSSLESEVSVLASKLKESVKEKEKVHSEVVQIRSEVSQVKREKENIQTLLKSKEQEVNELLQKFQQAQEELAEMKRYAESSSKLEEDKDKKINEMSKEVTKLKEALNSLSQLSYSTSSSKRQSQQLEALQQQVKQLQNQLAECKKQHQEVISVYRMHLLYAVQGQMDEDVQKVLKQILTMCKNQSQKK
B6: Splicing factor, arginine/serine-rich 3 (protein, UniProt P84103 1-164)
chain: MHRDSCPLDCKVYVGNLGNNGNKTELERAFGYYGPLRSVWVARNPPGFAFVEFEDPRDAADAVRELDGRTLCGCRVRVELSNGEKRSRNRGPPPSWGRRPRDDYRRRSPPPRRRSPRRRSFSRSRSRSLSRDRRRERSLSRERNHKPSRSFSRSRSRSRSNERK
B7: K-Cl co-transporter KCC4 (protein, UniProt Q9Y666 1-1083)
chain: MPTNFTVVPVEAHADGGGDETAERTEAPGTPEGPEPERPSPGDGNPRENSPFLNNVEVEQESFFEGKNMALFEEEMDSNPMVSSLLNKLANYTNLSQGVVEHEEDEESRRREAKAPRMGTFIGVYLPCLQNILGVILFLRLTWIVGVAGVLESFLIVAMCCTCTMLTAISMSAIATNGVVPAGGSYYMISRSLGPEFGGAVGLCFYLGTTFAGAMYILGTIEIFLTYISPGAAIFQAEAAGGEAAAMLHNMRVYGTCTLVLMALVVFVGVKYVNKLALVFLACVVLSILAIYAGVIKSAFDPPDIPVCLLGNRTLSRRSFDACVKAYGIHNNSATSALWGLFCNGSQPSAACDEYFIQNNVTEIQGIPGAASGVFLENLWSTYAHAGAFVEKKGVPSVPVAEESRASALPYVLTDIAASFTLLVGIYFPSVTGIMAGSNRSGDLKDAQKSIPTGTILAIVTTSFIYLSCIVLFGACIEGVVLRDKFGEALQGNLVIGMLAWPSPWVIVIGSFFSTCGAGLQSLTGAPRLLQAIARDGIVPFLQVFGHGKANGEPTWALLLTVLICETGILIASLDSVAPILSMFFLMCYLFVNLACAVQTLLRTPNWRPRFKFYHWTLSFLGMSLCLALMFICSWYYALSAMLIAGCIYKYIEYRGAEKEWGDGIRGLSLNAARYALLRVEHGPPHTKNWRPQVLVMLNLDAEQAVKHPRLLSFTSQLKAGKGLTIVGSVLEGTYLDKHMEAQRAEENIRSLMSTEKTKGFCQLVVSSSLRDGMSHLIQSAGLGGLKHNTVLMAWPASWKQEDNPFSWKNFVDTVRDTTAAHQALLVAKNVDSFPQNQERFGGGHIDVWWIVHDGGMLMLLPFLLRQHKVWRKCRMRIFTVAQVDDNSIQMKKDLQMFLYHLRISAEVEVVEMVENDISAFTYERTLMMEQRSQMLKQMQLSKNEQEREAQLIHDRNTASHTAAAARTQAPPTPDKVQMTWTREKLIAEKYRSRDTSLSGFKDLFSMKPDQSNVRRMHTAVKLNGVVLNKSQDAQLVLLNMPGPPKNRQGDENYMEFLEVLTEGLNRVLLVRGGGREVITIYS

The binders below were run against T1, Heme oxygenase 1 (recombinant FLAGHO-1) (human) (assay: affinity purification with mass spectrometry; PC3 cells transiently transfected with FLAGHO-1 or empty FLAG vector and treated with H2O2 (200 uM); extract in 20 mM Tris, 150 mM NaCl, 5 mM MgCl2, 0.5% NP40, pH 7.5; Flag magnetic beads 2 h at 4 °C; eluted with 3XFLAG peptide; trypsin digest, LC-ESI MS/MS; only proteins differential against the empty FLAG vector were kept).

binding, binds:
B1, B2, B3, B4, B5, B6, B7
